Measurements as given in PMC11543891, “Expression, purification, and characterization of diacylated Lipo-YcjN from Escherichia coli” (The Journal of Biological Chemistry, 2024).
Results are given in words; binding and its absence hold for the method and conditions named.

Molecular target: ΔYcjN (non-lipidated YcjN, residues 1-21 deleted) (E. coli K-12) (UniProt P76042)
Assay: SEC; Hiload 16/600 Superdex 200 pg, 25 mM Tris-HCl pH 7.5, 100 mM NaCl, run without LMNG and with 0.01% LMNG; elution volumes compared with gel filtration standards; both purified

binding: no binding
B1: ΔYcjN (non-lipidated YcjN, residues 1-21 deleted) (domain or fragment, UniProt P76042 22-430)
chain: KEENKTNVSIEFMHSSVEQERQAVISKLIARFEKENPGITVKQVPVEEDAYNTKVITLSRSGSLPEVIETSHDYAKVMDKEQLIDRKAVATVISNVGEGAFYDGVLRIVRTEDGSAWTGVPVSAWIGGIWYRKDVLAKAGLEEPKNWQQLLDVAQKLNDPANKKYGIALPTAESVLTEQSFSQFALSNQANVFNAEGKITLDTPEMMQALTYYRDLTANTMPGSNDIMEVKDAFMNGTAPMAIYSTYILPAVIKEGDPKNVGFVVPTEKNSAVYGMLTSLTITAGQKTEETEAAEKFVTFMEQADNIADWVMMSPGAALPVNKAVVTTATWKDNDVIKALGELPNQLIGELPNIQVFGAVGDKNFTRMGDVTGSGVVSSMVHNVTVGKADLSTTLQASQKKLDELIEQH
